# Laboratory results as given in US20070122395A1, “Genetic and pharmacological regulation of antidepressant-sensitive biogenic amine transporters through PKG/p38 map kinase” (Vanderbilt University, priority 2005, published 2007).
# System: rat SERT expressed by RBL-2H3 cells
# Assay: [3H]5-HT transport assay in RBL-2H3 cells
# Assay type: cell-based
structure (smiles),measurement,value
O=[N+]([O-])c1ccc(-c2nc(-c3ccncc3)c(-c3ccc(F)cc3)[nH]2)cc1 [PD169316],blockade of anisomycin-stimulated 5-HT uptake / SERT activity,blocked anisomycin stimulation of SERT
